Experimental data: PubChem BioAssay AID662 (National Center for Advancing Translational Sciences (NCATS), 2007)
“And” between values parts separate entries of the source, which are not always exact repeats. Equal entries are not always repeated. Some of the results follow. These are further read-outs of the screen, such as a control signal, another cell line or another target. No call is given for them. The list favours compounds with an active or inconclusive main result. Potencies come from curve fits of mixed quality, noted in brackets.

Experiment: Cell signaling CRE-BLA (Fsk stim)
Conditions: CHO CRE-bla reporter (cAMP response element driving beta-lactamase), forskolin EC10, beta-lactamase ratio; measured here: 460 nm blue channel
How it was run: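 AC50 values, positive or negative, reflect shifts in EC10 NKH 477-induced CRE-bla reporter activity in CHO cells. Incubation lasted 3 h at 37 °C before CCF4 substrate (2 h, room temperature) and ratiometric 460/530 nm reading.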

| SMILES | AC50 |
| --- | --- |
| O=C(CCCOc1ccc(Cl)cc1Cl)N1CCC2(CC1)OCCO2 | 12.6 µM [rising, single point] |
| CC(C)CC12CN3CCN(CC(C3)/C1=N/O)C2 | 0.631 µM [falling, full curve, poor fit] |
| O=C(NCC(c1cccnc1)N1CCN(c2ccc(F)cc2)CC1)Oc1ccccc1 (stereo not drawn) | 0.01 µM [falling, partial curve, poor fit] |
| CCCCCCCCCc1ccc(O)cc1 | 10 µM [rising, partial curve, poor fit] |
| CCC(=NCc1ccco1)c1c(O)[nH]c(=O)[nH]c1=O | 15.8 µM [rising, single point] |
| c1ccc(CN2CCC3(CCNCC3)CC2)cc1 | 25.1 µM [rising, single point] |
| [O]=[Cr](=[O])([OH])[O][Cr](=[O])(=[O])[OH] | 1 µM [falling, full curve, poor fit] |
| CCC(=Nc1ccc(OC)cc1OC)c1c(O)[nH]c(=O)[nH]c1=O | 12.6 µM [rising, partial curve] |
| O=C(Cn1ncc2c3ccccc3n(Cc3ccc(F)cc3)c2c1=O)N1CCC2(CC1)OCCO2 | 0.1 µM [falling, full curve] |
| COc1ccc2[nH]cc(CCN)c2c1 | 10 µM [falling, partial curve] |
| CNc1ccc2oc(C[C@@H]3O[C@@]4(CC[C@H]3C)O[C@@H]([C@@H](C)C(=O)c3ccc[nH]3)[C@@H](C)C[C@H]4C)nc2c1C(=O)O | 0.1 µM [rising, full curve, poor fit] |
| O=C1CC(C(=O)N2CCC3(CC2)OCCO3)CN1CCc1ccccc1 (stereo not drawn) | 0.0501 µM [falling, full curve, poor fit] |
| C=CCn1c(O)c(C(=O)CCCCCC)c(=O)[nH]c1=O | 12.6 µM [falling, single point] |
| O=C(O)/C=C\c1ccc[c]([Sb](=[O])([OH])[OH])c1 | 2 µM [rising, partial curve] |
| O=c1[nH]c(=O)n(C2CCCCC2)c(O)c1C1NCCc2ccccc21 (stereo not drawn) | 10 µM [falling, partial curve] |
| CC(=NCCCN1CCOCC1)c1c(O)n(-c2ccccc2C)c(=O)[nH]c1=O | 10 µM [falling, partial curve] |
| C[C@@H]1CC[C@@]2(OC1)O[C@H]1[C@@H](O)[C@H]3[C@@H]4CC[C@H]5C[C@@H](O[C@@H]6O[C@H](CO)[C@H](O[C@@H]7O[C@H](CO)[C@@H](O)[C@H](O[C@@H]8OC[C@@H](O)[C@H](O)[C@H]8O)[C@H]7O[C@@H]7O[C@H](CO)[C@@H](O)[C@H](O[C@@H]8O[C@H](CO)[C@@H](O)[C@H](O)[C@H]8O)[C@H]7O)[C@H](O)[C@H]6O)[C@H](O)C[C@]5(C)[C@H]4CC[C@]3(C)[C@H]1[C@@H]2C | 0.794 µM [falling, full curve] |
| Cc1ccc2c(c1)CC1(CN2C)C(=O)NC(=O)N(c2cccc(C)c2C)C1=O (stereo not drawn) | 1.58 µM [falling, full curve, poor fit] |
| O=C1C=C2C=C[C@H]3C[C@@]2(O1)[C@H]1CCCCN31 | 10 µM [falling, partial curve] and 10 µM [falling, partial curve, poor fit] |
| O=S1OCC2C(CO1)C1(Cl)C(Cl)=C(Cl)C2(Cl)C1(Cl)Cl (stereo not drawn) | 15.8 µM [rising, partial curve] |
| O=C(Nc1ccccc1OC(=O)N1CCCCC1)N1CCCCC1 | 0.00316 µM [falling, full curve, poor fit] |

| SMILES | AC50 |
| --- | --- |
| CNP1(NC)=Nc2nn(-c3ccccc3)c(N)c2C(c2ccccc2)=N1 | 5.01 µM [falling, single point] |
| C[n+]1c(/C=C\c2ccc(O)c3ncccc23)[se]c2ccccc21 | 3.98 µM [rising, single point] |
| Cc1o[nH]c(=O)c1C[C@H](N)C(=O)O | 12.6 µM [rising, single point] |
| CC(=NCCC1=CCCCC1)c1c(O)n(C)c(=O)n(C)c1=O | 20 µM [rising, single point] |
| COc1cc(-c2ccc(N)c(OC)c2)ccc1N | 25.1 µM [rising, partial curve] |
| CC(C)OC(=O)Cc1ccccc1 | 1 µM [falling, full curve, poor fit] |
| CCCCn1c(N)c(C(=O)OCC2CCCO2)c2nc3ccccc3nc21 (stereo not drawn) | 3.98 µM [rising, partial curve] |
| CC(=NCc1ccc(F)cc1)c1c(O)n(C)c(=O)n(C)c1=O | 6.31 µM [rising, partial curve] |
| FC(F)(F)c1ccc2c(c1)NP(=S)(N1CCOCC1)c1nccn1-2 (stereo not drawn) | 25.1 µM [rising, single point] |
| Cc1nc(-c2ccc(-c3ccc(C(=O)N4CCc5cc6c(cc54)C4(CCN(C)CC4)CO6)cc3)c(C)c2)no1 | 0.251 µM [rising, full curve, poor fit] |
| NNc1c(C(N)=O)c2c(N)ncnc2n1[C@@H]1O[C@H](CO)[C@@H](O)[C@@H]1O | 0.00631 µM [falling, full curve] |
| c1ccc(N2CCC3(CCNCC3)CC2)nc1 | 3.98 µM [falling, partial curve] |
| CCOC(=O)c1c(N)n(Cc2ccco2)c2nc3ccccc3nc12 | 10 µM [rising, partial curve] |
| CCC(C)NC(=O)c1c(N)n(CCCOC)c2nc3ccccc3nc12 (stereo not drawn) | 10 µM [rising, partial curve] |
| CCOC(=O)C1C(=O)NC2(C)CC1c1cc(OC)ccc1O2 (stereo not drawn) | 0.0794 µM [falling, full curve, poor fit] |
| COc1ccc(C2=NCC(=O)N(CC(=O)NCc3ccco3)c3sc4c(c32)CCCC4)cc1 | 0.398 µM [falling, partial curve, poor fit] |
| O=[N+]([O-])c1c(Cl)c(Cl)c(Cl)c(Cl)c1Cl | 31.6 µM [falling, single point] |
| CCCCCCCCCOc1ccc2[nH]cc(CCN)c2c1 | 31.6 µM [falling, single point] |
| FC(F)(F)c1ccc2c(c1)nnn2C1CCN(Cc2nnnn2Cc2ccccc2)CC1 | 12.6 µM [rising, single point] |
| Clc1ccc(COC(Cn2ccnc2)c2ccc(Cl)cc2Cl)cc1 (stereo not drawn) | 25.1 µM [falling, partial curve] |
| CN1CCN(C(=O)COc2ccc3ccccc3c2Br)CC1 | 2.51 µM [rising, partial curve] |

| SMILES | AC50 |
| --- | --- |
| Cc1ccc2c(c1)C1CN(C)CCC1N2C(=O)Cn1cnc2c1c(=O)n(C)c(=O)n2C (stereo not drawn) | 3.16 µM [falling, partial curve] |
| O=C1C2CC=CCC2C(=O)N1SC(Cl)(Cl)Cl (stereo not drawn) | 2.51 µM [falling, full curve] and 3.16 µM [falling, full curve] |
| CCCCN1CCC(C#N)(Nc2ccccc2)CC1 | 3.16 µM [rising, single point] |
| CCCCn1c(N)c(C(=O)NCCN2CCOCC2)c2nc3ccccc3nc21 | 12.6 µM [rising, partial curve] |
| Cc1ccc2c(c1N)C(=O)c1ccccc1C2=O | 10 µM [rising, full curve] |
| CCC[C@@](C)(COC(N)=O)COC(=O)NC(C)C | 5.01 µM [falling, single point] |
| c1ccc([C@H]2CNCc3ccccc32)cc1 | 25.1 µM [falling, partial curve, poor fit] |
| O=P(/C(=N/O)N1CCCCC1)(N1CCOCC1)N1CCOCC1 | 25.1 µM [rising, single point] |
| CC(=NCCCN1CCOCC1)c1c(O)n(Cc2ccccc2)c(=O)[nH]c1=O | 0.01 µM [falling, full curve] |
| COc1cc2cc(c1Cl)N(C)C(=O)C[C@H](OC(=O)C(C)C)[C@]1(C)O[C@@H]1[C@@H](C)[C@H]1C[C@](O)(NC(=O)O1)[C@@H](OC)/C=C\C=C(\C)C2 | 0.0126 µM [rising, full curve] |
| N#CSCSC#N | 25.1 µM [falling, partial curve] |
| O=C(CCCN1CCC2(CC1)C(=O)NCN2c1ccccc1)c1ccc(F)cc1 | 31.6 µM [rising, single point] and 12.6 µM [rising, single point] |
| CCC(=NCc1cccnc1)c1c(O)n(C2CCCCC2)c(=O)[nH]c1=O | 12.6 µM [rising, single point] |
| C[N+]12CCC(CC1)C(C#N)(N1CCOCC1)C2 (stereo not drawn) | 20 µM [falling, partial curve] |
| COc1ccc(C(CC(=O)N2CCC3(CC2)OCCO3)NS(=O)(=O)c2ccc(OC)cc2)cc1 (stereo not drawn) | 12.6 µM [falling, partial curve, poor fit] |
| CC(C)Oc1cccnc1N(C)C1CCN(Cc2ccccc2)CC1 | 25.1 µM [falling, partial curve, poor fit] |
| O=C(Cl)C(Cl)(Cl)Cl | 12.6 µM [rising, single point] |
| Cc1ccccc1-n1c(O)c(C=Nc2ccc(N(C)C)cc2)c(=O)[nH]c1=O | 12.6 µM [rising, single point] |
| ClC1=C(Cl)C2(Cl)C3C4CC(C5OC45)C3C1(Cl)C2(Cl)Cl (stereo not drawn) | 12.6 µM [rising, single point] |
| C[C@H]1CCC[C@@H](O)CCC/C=C/c2cc(O)cc(O)c2C(=O)O1 | 5.01 µM [falling, single point] |
| COCCOC(=O)C1=C(N)Oc2c(c(=O)oc3ccccc23)C1c1ccncc1 (stereo not drawn) | 10 µM [rising, single point] |

Retrieved by compound from the list above:

| SMILES | AC50 |
| --- | --- |
| CC(C)Oc1cccnc1N(C)C1CCN(Cc2ccccc2)CC1 | 25.1 µM [falling, partial curve, poor fit] |
| CCC[C@@](C)(COC(N)=O)COC(=O)NC(C)C | 5.01 µM [falling, single point] |
| c1ccc([C@H]2CNCc3ccccc32)cc1 | 25.1 µM [falling, partial curve, poor fit] |
